The test has as its target Snail (rat (endogenous in NRK-52E)). Put plainly: co-IP; Co-IP (Supplementary Figure S1B); immunoprecipitation (Co-IP) kit (Thermo) listed under reagents; sample, precipitating antibody and conditions not told.

Results are given in words; binding and its absence hold for the method and conditions named. In cells and extracts the contact can be indirect. Binding calls can cover weak binding; strength is not graded here.

B1: Inhibitor of differentiation 2 (Id2) (protein, UniProt P41137 1-134)
chain: MKAFSPVRSVRKNSLSDHSLGISRSKTPVDDPMSLLYNMNDCYSKLKELVPSIPQNKKVTKMEILQHVIDYILDLQIALDSHPTIVSLHHQRPGQNQTSRTPLTTLNTDISILSLQASEFPSELMSNDSKVLCG
For B1, the binding result is “binds”.

Source of the values: article PMC9201778.
